Experimental data published in ChEMBL document CHEMBL1151717, “In vivo active aldosterone synthase inhibitors with improved selectivity: lead optimization providing a series of pyridine substituted 3,4-dihydro-1H-quinolin-2-one derivatives” (J Med Chem, 2008).

Assay: Selectivity ratio, IC50 for human CYP11B1 to IC50 for human CYP11B2

## N#Cc1ccc(C2CCCc3cncn32)cc1 (stereo unspecified) [FADROZOLE]
  IC50: 10 nM
